Series [1] can be described thus: Shelf life stability program of bupropion HBr, 25° C./60% RH, 3 and 6 months, HPLC. The following applies: 12 months. Type of series: physicochemical. The method, then: The stability of bupropion HBr was studied over a longer term under conditions meant to approximate standard storage or shelf conditions. Samples were prepared in closed containers and subjected to long-term storage at 25° C.+2° C. and 60%+5% RH in a stability chamber. The samples were analyzed by HPLC prior to being placed in the stability chamber (time 0) and after 3 months and 6 months. The amounts of the main degradation products present at time 0 were compared with the amounts present at 3 months and 6 months. As shown in Table 77-79 three different batches of bupropion HBr were tested. As in Example 10 each sample was tested under two HPLC assay conditions to identify 6 impurities or groups of impurities as described in Example 10.

A short description of series [2]: Accelerated stability study of bupropion HBr, closed bottles, 40° C./75% RH, 3 and 6 months, HPLC. Type of series: physicochemical. The following applies: 40° C./R.H. 75%. The method, then:
The samples were prepared in closed bottles and placed in the stability chamber. HPLC analysis was conducted on the samples prior to placing them in the stability chamber (time 0), and after 3 months and 6 months. The amounts of the main degradation products present at time 0 were compared with those amounts present after 3 months and 6 months. […] For each sample tested, at each time period, two different HPLC assays were run. The first assay labelled chromatographic purity A, measured the percentage of three impurities 3′chloropropiophenone, 3′-Chloro-2-bromopropiophenone and 3′-Chlorobenzoic acid. The second assay, labelled chromatographic purity B, measured the percentage of 2-N-(tert-Butyl)-aminopropiophenone, a single unknown impurity and the total unknown impurities.

This is an account of results in patent US7884136B2, “Modified-release formulations of a bupropion salt” (Biovail Laboratories International S.R.L., priority 2005, dated 2011).

With `Br.CC(NC(C)(C)C)C(=O)c1cccc(Cl)c1` (stereo not drawn) [Bupropion•HBr], the “Microbial cont. moulds and yeast” value in series [1] (Batch D00894, 25° C., R.H. 60%) is less than 100 ufc/g; in series [1] (Batch D00895, 25° C., R.H. 60%) it was less than 100 ufc/g; in series [1] (Batch D00896, 25° C., R.H. 60%), less than 100 ufc/g. Also, the “Microbial cont. total microbial count” value is less than 100 ufc/g in series [1] (Batch D00894, 25° C., R.H. 60%); less than 100 ufc/g in series [1] (Batch D00895, 25° C., R.H. 60%); less than 100 ufc/g in series [1] (Batch D00896, 25° C., R.H. 60%).
Take `Br.CC(NC(C)(C)C)C(=O)c1cccc(Cl)c1` (stereo not drawn) [Bupropion.HBr D00894]: the “Identification (IR, HPLC)” value in series [2] (3 month), in series [2] (6 months) and in series [2] (time 0) was “positive” each time.
Turning to `Br.CC(NC(C)(C)C)C(=O)c1cccc(Cl)c1` (stereo not drawn) [Bupropion.HBr D00896], the “Identification (IR, HPLC)” value in series [2] (3 month), in series [2] (6 months) and in series [2] (time 0) was “positive” throughout.
Turning to `Br.CC(NC(C)(C)C)C(=O)c1cccc(Cl)c1` (stereo not drawn) [Bupropion•HBr D00894], in series [1] (25° C./RH 60%), the “Microbial cont. moulds and yeast” value is given as less than 100 ufc/g; the “Microbial cont. total microbial count” value is reported as less than 100 ufc/g.
Turning to `Br.CC(NC(C)(C)C)C(=O)c1cccc(Cl)c1` (stereo not drawn) [Bupropion•HBr D00895], in series [1] (25° C./RH 60%), the “Microbial cont. moulds and yeast” value was less than 100 ufc/g; the “Microbial cont. total microbial count” value is given as less than 100 ufc/g.
As for `Br.CC(NC(C)(C)C)C(=O)c1cccc(Cl)c1` (stereo not drawn) [Bupropion•HBr D00896], in series [1] (25° C./RH 60%), the “Microbial cont. moulds and yeast” value is listed as less than 100 ufc/g; the “Microbial cont. total microbial count” value was less than 100 ufc/g.
In the case of `Br.CC(NC(C)(C)C)C(=O)c1cccc(Cl)c1` (stereo not drawn) [Bupropion.HBr D00895], the “Identification (IR, HPLC)” value in series [2] (3 month), in series [2] (6 months) and in series [2] (time 0) was “positive” each time.
